Measurements: publication PMC8406179
Where a chain is given by its changes, count along the chain named. Numbers in names are those of the source. These are yes or no findings as the source states them, for the method shown. In cells and extracts the contact can be indirect. Binding can be weak; no strength is given. For some of these results: Where a sequence is shown, tags or fusion partners need not be part of it.

B1: endogenous murine Rb1 (protein, UniProt P13405 1-921)
chain: MPPKAPRRAAAAEPPPPPPPPPREDDPAQDSGPEELPLARLEFEEIEEPEFIALCQKLKVPDHVRERAWLTWEKVSSVDGILEGYIQKKKELWGICIFIAAVDLDEMPFTFTELQKSIETSVYKFFDLLKEIDTSTKVDNAMSRLLKKYNVLCALYSKLERTCELIYLTQPSSALSTEINSMLVLKISWITFLLAKGEVLQMEDDLVISFQLMLCVVDYFIKFSPPALLREPYKTAAIPINGSPRTPRRGQNRSARIAKQLENDTRIIEVLCKEHECNIDEVKNVYFKNFIPFINSLGIVSSNGLPEVESLSKRYEEVYLKNKDLDARLFLDHDKTLQTDPIDSFETERTPRKNNPDEEANVVTPHTPVRTVMNTIQQLMVILNSASDQPSENLISYFNNCTVNPKENILKRVKDVGHIFKEKFANAVGQGCVDIGVQRYKLGVRLYYRVMESMLKSEEERLSIQNFSKLLNDNIFHMSLLACALEVVMATYSRSTLQHLDSGTDLSFPWILNVLNLKAFDFYKVIESFIKVEANLTREMIKHLERCEHRIMESLAWLSDSPLFDLIKQSKDGEGPDNLEPACPLSLPLQGNHTAADMYLSPLRSPKKRTSTTRVNSAANTETQAASAFHTQKPLKSTSLALFYKKVYRLAYLRLNTLCARLLSDHPELEHIIWTLFQHTLQNEYELMRDRHLDQIMMCSMYGICKVKNIDLKFKIIVTAYKDLPHAAQETFKRVLIREEEFDSIIVFYNSVFMQRLKTNILQYASTRPPTLSPIPHIPRSPYKFSSSPLRIPGGNIYISPLKSPYKISEGLPTPTKMTPRSRILVSIGESFGTSEKFQKINQMVCNSDRVLKRSAEGGNPPKPLKKLRFDIEGADEADGSKHLPAESKFQQKLAEMTSTRTRMQKQRMNESKDVSNKEEK
B2: HA-epitope tagged full-length RB1 (amino acid residues 1 to 928) (protein, UniProt P06400 1-928)
chain: MPPKTPRKTAATAAAAAAEPPAPPPPPPPEEDPEQDSGPEDLPLVRLEFEETEEPDFTALCQKLKIPDHVRERAWLTWEKVSSVDGVLGGYIQKKKELWGICIFIAAVDLDEMSFTFTELQKNIEISVHKFFNLLKEIDTSTKVDNAMSRLLKKYDVLFALFSKLERTCELIYLTQPSSSISTEINSALVLKVSWITFLLAKGEVLQMEDDLVISFQLMLCVLDYFIKLSPPMLLKEPYKTAVIPINGSPRTPRRGQNRSARIAKQLENDTRIIEVLCKEHECNIDEVKNVYFKNFIPFMNSLGLVTSNGLPEVENLSKRYEEIYLKNKDLDARLFLDHDKTLQTDSIDSFETQRTPRKSNLDEEVNVIPPHTPVRTVMNTIQQLMMILNSASDQPSENLISYFNNCTVNPKESILKRVKDIGYIFKEKFAKAVGQGCVEIGSQRYKLGVRLYYRVMESMLKSEEERLSIQNFSKLLNDNIFHMSLLACALEVVMATYSRSTSQNLDSGTDLSFPWILNVLNLKAFDFYKVIESFIKAEGNLTREMIKHLERCEHRIMESLAWLSDSPLFDLIKQSKDREGPTDHLESACPLNLPLQNNHTAADMYLSPVRSPKKKGSTTRVNSTANAETQATSAFQTQKPLKSTSLSLFYKKVYRLAYLRLNTLCERLLSEHPELEHIIWTLFQHTLQNEYELMRDRHLDQIMMCSMYGICKVKNIDLKFKIIVTAYKDLPHAVQETFKRVLIKEEEYDSIIVFYNSVFMQRLKTNILQYASTRPPTLSPIPHIPRSPYKFPSSPLRIPGGNIYISPLKSPYKISEGLPTPTKMTPRSRILVSIGESFGTSEKFQKINQMVCNSDRVLKRSAEGSNPPKPLKKLRFDIEGSDEADGSKHLPGESKFQQKLAEMTSTRTRMQKQKMNDSMDTSNKEEK
B3: wild-type RB1 (expression vector, SAOS-2) (protein, UniProt P06400 1-928)
chain: B2 chain
B4: retinoblastoma tumor suppressor protein RB1 (endogenous, HCT116) (protein, UniProt P06400 1-928)
chain: B2 chain
B5: RB1^L mutant (I753A; N757A; M761A), LXCXE binding-defective RB1 (protein, UniProt P06400 1-928)
chain: B2 chain with I753A, N757A, M761A
B6: HA-epitope tagged RB1 truncation mutant 379-928 (lacking the amino terminus) (domain or fragment, UniProt P06400 379-928)
chain: MNTIQQLMMILNSASDQPSENLISYFNNCTVNPKESILKRVKDIGYIFKEKFAKAVGQGCVEIGSQRYKLGVRLYYRVMESMLKSEEERLSIQNFSKLLNDNIFHMSLLACALEVVMATYSRSTSQNLDSGTDLSFPWILNVLNLKAFDFYKVIESFIKAEGNLTREMIKHLERCEHRIMESLAWLSDSPLFDLIKQSKDREGPTDHLESACPLNLPLQNNHTAADMYLSPVRSPKKKGSTTRVNSTANAETQATSAFQTQKPLKSTSLSLFYKKVYRLAYLRLNTLCERLLSEHPELEHIIWTLFQHTLQNEYELMRDRHLDQIMMCSMYGICKVKNIDLKFKIIVTAYKDLPHAVQETFKRVLIKEEEYDSIIVFYNSVFMQRLKTNILQYASTRPPTLSPIPHIPRSPYKFPSSPLRIPGGNIYISPLKSPYKISEGLPTPTKMTPRSRILVSIGESFGTSEKFQKINQMVCNSDRVLKRSAEGSNPPKPLKKLRFDIEGSDEADGSKHLPGESKFQQKLAEMTSTRTRMQKQKMNDSMDTSNKEEK

Legend:
[1] = target: N-terminally FLAG/HA epitope-tagged MmuPV1 E7 (Mus musculus papillomavirus type 1); assay: co-IP; NIH 3T3 murine fibroblasts transfected with N-terminally FLAG/HA-tagged MmuPV1 E7 or D90A; endogenous Rb1 detected by immunoblot
[2] = target: N-terminally FLAG/HA epitope-tagged MmuPV1 E7 (Mus musculus papillomavirus type 1); assay: co-IP; SAOS-2 cells cotransfected with HA-tagged RB1 (1-928, 379-928 or 1-792) and FLAG/HA-tagged MmuPV1 E7 or HPV16 E7; immunoprecipitation with FLAG antibodies, HA immunoblot
[3] = target: N-terminally FLAG/HA epitope-tagged MmuPV1 E7 (Mus musculus papillomavirus type 1); assay: co-IP; SAOS-2 cells cotransfected with wild-type RB1 or RB1^L and MmuPV1 E7 or HPV16 E7 expression vectors
[4] = target: MmuPV1 E7^D90N (Mus musculus papillomavirus type 1); assay: co-IP; HCT116 transfected with FLAG/HA-tagged MmuPV1 E7 or mutants; lysis in EBC buffer (50 mM Tris-Cl pH 8.0, 150 mM NaCl, 0.5% NP-40, 0.5 mM EDTA); anti-HA or anti-FLAG agarose; endogenous RB1 detected by immunoblot
[5] = target: N-terminally FLAG/HA epitope-tagged MmuPV1 E7 (Mus musculus papillomavirus type 1); assay: as above

| Binder | binding [2] | binding [3] | further results |
| --- | --- | --- | --- |
| B1 |  |  | binding [1]: binds |
| B2 | binds |  |  |
| B3 |  | binds |  |
| B4 |  |  | binding [4]: binds; binding [5]: binds |
| B5 |  | binds |  |
| B6 | binds |  |  |
